Experimental data taken from article doi:10.1101/2023.02.03.526950.

Key:
[1] = target: C-terminal region of HIC5; experiment: co-IP
[2] = target: LIM4 domain located within the C terminus of PXN (human); experiment: co-IP

- binding [1]: binds
- binding [2]: binds
B1: ULK2, expressed in HEK293T cells (enzyme, UniProt Q8IYT8 1-1036)
chain: MEVVGDFEYSKRDLVGHGAFAVVFRGRHRQKTDWEVAIKSINKKNLSKSQILLGKEIKILKELQHENIVALYDVQELPNSVFLVMEYCNGGDLADYLQAKGTLSEDTIRVFLHQIAAAMRILHSKGIIHRDLKPQNILLSYANRRKSSVSGIRIKIADFGFARYLHSNMMAATLCGSPMYMAPEVIMSQHYDAKADLWSIGTVIYQCLVGKPPFQANSPQDLRMFYEKNRSLMPSIPRETSPYLANLLLGLLQRNQKDRMDFEAFFSHPFLEQGPVKKSCPVPVPMYSGSVSGSSCGSSPSCRFASPPSLPDMQHIQEENLSSPPLGPPNYLQVSKDSASTSSKNSSCDTDDFVLVPHNISSDHSCDMPVGTAGRRASNEFLVCGGQCQPTVSPHSETAPIPVPTQIRNYQRIEQNLTSTASSGTNVHGSPRSAVVRRSNTSPMGFLRPGSCSPVPADTAQTVGRRLSTGSSRPYSPSPLVGTIPEQFSQCCCGHPQGHDSRSRNSSGSPVPQAQSPQSLLSGARLQSAPTLTDIYQNKQKLRKQHSDPVCPSHTGAGYSYSPQPSRPGSLGTSPTKHLGSSPRSSDWFFKTPLPTIIGSPTKTTAPFKIPKTQASSNLLALVTRHGPAEEQSKDGNEPRECAHCLLVQGSERQRAEQQSKAVFGRSVSTGKLSDQQGKTPICRHQGSTDSLNTERPMDIAPAGACGGVLAPPAGTAASSKAVLFTVGSPPHSAAAPTCTHMFLRTRTTSVGPSNSGGSLCAMSGRVCVGSPPGPGFGSSPPGAEAAPSLRYVPYGASPPSLEGLITFEAPELPEETLMEREHTDTLRHLNVMLMFTECVLDLTAMRGGNPELCTSAVSLYQIQESVVVDQISQLSKDWGRVEQLVLYMKAAQLLAASLHLAKAQIKSGKLSPSTAVKQVVKNLNERYKFCITMCKKLTEKLNRFFSDKQRFIDEINSVTAEKLIYNCAVEMVQSAALDEMFQQTEDIVYRYHKAALLLEGLSRILQDPADIENVHKYKCSIERRLSALCHSTATV

Results are given in words; binding and its absence hold for the method and conditions named. In cells and extracts the contact can be indirect. A result given as binding can be weak or reduced; the word gives no strength.
